The values that follow come from PubChem BioAssay AID1347426 (Functional Genomics Laboratory (NCATS/FGL), 2020).

The whole screen tested about 31,000 sequences, of which about 1,400 (4.5%) were called active.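 Rule for the calls: active = median seed-adjusted z-score above 1 or below -1; inactive = the rest.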 The list shows a part of the results.

A short description of the experiment: Novel Modifiers of Survival Motor Neuron (SMN) Protein: Gene Identification via Genome-wide siRNA Screen.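 Note: luminescence tracks full-length SMN protein made from the SMN2 reporter.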 The note with it: HEK293T SMN2-luciferase reporter, siRNA knockdown, 72 h; actives lie on both sides. In short, it runs like this:
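Steps: spot 1 pmol siRNA, add Lipofectamine RNAiMax in serum-free DMEM, seed HEK293T SMN2–luciferase reporter cells; incubate 72 h at 37 °C; add ONE-Glo; normalize luminescence to control siRNA, log10, MAD. Candidates: |MAD| > 1.0.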
Background: In a reporter assay the amount or activity of a reporter protein is the signal.
Consider GAGUAAAGGUUUUAUUACATT against SLC25A16, for which the median seed-adjusted z-score is inactive: 0.0479. Under CCCUUUCCAUAGCCCAGGATT against RBP3 stands inactive: 0; under GCUGAUCUCCGUAGAUACATT against PPY, inactive: -0.0804.

Consider GGCCCUAUUCUGUCACGAATT against TRIM28, for which the median seed-adjusted z-score is inactive: -0.718. With GCUUUGGAGUCACAGGUCATT against EYA3, the median seed-adjusted z-score was inactive: -0.0191. Under AGAACAUCAUCGCGCGGGATT against FOXB1 stands inactive: 0.223.

Turning to GAAUGUUAUGAUGAACUAATT against ZNF430, the median seed-adjusted z-score is inactive: 0.681. Under GCGUCUUGCUGCUACUCAATT against BMPER stands inactive: -0.684; under CUUUAAAAUUAGGACCAUATT against RAB8A, inactive: -0.0436; under CUGUAUGAACUAAAAGUAATT against SOX1, inactive: 0.415. Under CAGCUAAACAGAACGAAAATT against PFDN1 stands inactive: 0.212; under GGACUGAAGUGGUGAUUGATT against CAPN6, inactive: 0.0288; under GCCUUAUACUGGAAGAAGATT against KITLG, inactive: 0.119. Under CUGCUAAACUUGAACCGAATT against TM9SF2 stands active: 1.09; under CAGUGGACGUGAGAACUAATT against AIFM3, inactive: -0.727; under CCAAUACAGUGGAACCUAUTT against ATXN1, inactive: -0.024. As for GCAUGUUGAUGCCCGAAGATT against SERPINB1, the median seed-adjusted z-score was inactive: 0.734. Under CUGAGAUUAUUGAAUAUCATT against TEC stands inactive: 0.258. Under CAGUGAUGAUGAUUCUGAATT against SNRK stands inactive: 0.463.

As to CAUCCAUAGUUGAUCGAGATT against DSG1, the median seed-adjusted z-score is inactive: 0.187.

With GGAUGAUUCGGAAGGUGAATT against ZNF467, the median seed-adjusted z-score is inactive: 0. Under GGAUCUACAGUUAUGGUCATT against NIPA2 stands inactive: -0.103. Under CACGGAUUCUUGUUGGAAATT against RAB33B stands inactive: -0.758; under CUAUUGUAUUUCUAUCAUATT against CXCL6, inactive: 0.802; under GAGGCAAUAUGAAACGAGUTT against CKMT2, inactive: -0.862.

On to UGACGUAGGCAUAAACGGATT against PCDH11Y, for which the median seed-adjusted z-score was inactive: 0.186. With GGAAUUUCGGCACUCAGAATT against CHIT1, the median seed-adjusted z-score is inactive: -0.578.

For the sequence GGACCUGCAACAUUUCUGATT against PGLYRP4, the median seed-adjusted z-score was inactive: 0.13. Take GCACUGCGAAGGUUCAGAATT against PPP1R3B: the median seed-adjusted z-score is inactive: -0.298.

With CAUCAGAGCUGGAUCUAGATT against PDGFRA, the median seed-adjusted z-score is inactive: 0.0399. Under GGAUGAUAUCAACUGCUAUTT against ACVR2A stands inactive: -0.22. Take CCAUCACGGUGAUUGCUGATT against CPNE4: the median seed-adjusted z-score is inactive: -0.0933. Under AGGUAGUAGUGAGACGUGATT against OSCAR stands inactive: 0.114; under GGACUUCACGAAAAGACAATT against UBE2J2, inactive: -0.341. On to GCCGGUAUGUCGCAAAAGATT against FLJ90650, for which the median seed-adjusted z-score was inactive: 0.427. Under GGUUCUUGAUGCCUAUGAATT against WARS stands inactive: -0.724; under GUUGAUAAGUUUUACCGAUTT against ADAM19, inactive: 0.0996; under CCUUCAAUCUUCCUAGUGATT against BAT3, inactive: 0.567.

For the sequence GCAAGGACCGAAUUCUUAUTT against TALDO1, the median seed-adjusted z-score was inactive: 0.131. Under GUAUGGAGCUAUCAAAGAATT against PRPSAP2 stands inactive: 0.329. Under CCAUUUACAUCGUCACGGATT against SRC stands inactive: -0.0246; under GGACUUUGGUGUGAAUGAATT against ANXA1, inactive: -0.114. Regarding CAAGGACUGUUUCCUCAAATT against FSTL4, the median seed-adjusted z-score was inactive: 0.429. Under GCAGCUAUCUCUGUACAGATT against MAPK8IP3 stands inactive: 0.734; under CAGUGAAGAUUAGACCGAATT against SYNJ2, inactive: 0.0202; under CCAUCGACUUCUUCGCCUUTT against WFS1, inactive: 0.696. For GCCCAAGCAGAUUACCAUATT against ARHGAP17, the median seed-adjusted z-score is inactive: -0.336. Under ACUCCACGCUGAUUCAGCATT against ZNF205 stands inactive: -0.468. Under GGUCAGCAGCUGUAUGAGATT against GCK stands inactive: -0.286; under CAACAUCACAAAUCCAGUUTT against B3GALNT2, inactive: -0.227; under CCCAAGAACCAUACCGUAATT against MTMR12, inactive: 0.419. Under GAAUAAACAUCUCCGUGAATT against ANAPC11 stands inactive: -0.581. As to GGGACUACCUUACAGUCAATT against PPP2R2C, the median seed-adjusted z-score is inactive: -0.87. Under CUGAGAGACUUGGAAUAUATT against TRIM26 stands inactive: 0. Under GGAUCUUUCAUAUUGUGGATT against MRPS28 stands inactive: -0.022. Under GCACCCGGUUUAUCAGUAATT against CCNF stands inactive: -0.435; under GCAUAUUACCACUCCGUUUTT against RFX6, inactive: 0.119; under AGAGAUUAAGAGUAACCAATT against SLC7A3, inactive: -0.537. In the case of GCCUUACAGUUAGAGUAUUTT against BRAP, the median seed-adjusted z-score is inactive: 0.267. Under GGUCAGAGAGUGGUAUUCATT against GANC stands inactive: 0.799; under CGCCUCCACCUGAAAUUCATT against BPIL1, inactive: 0.261. Under GCAGUACAAGUAUCCACAATT against NPY2R stands inactive: 0.121; under CUCUGAACCAAAUCGUUUATT against DPP8, inactive: -0.0209. Under GAUUAAGGGUGCAACUAAATT against EIF2AK1 stands inactive: -0.546. With GGAAAGGACCUCUACCGUUTT against PRDM1, the median seed-adjusted z-score was inactive: -0.16.

Regarding GUGAUAGUAUGGAUGCUCATT against P2RY14, the median seed-adjusted z-score is inactive: -0.0536.

With CAAUCUGAGUGAGAGACAATT against HOXB9, the median seed-adjusted z-score is inactive: 0.717. Regarding GAAAGAGGCAGGGACCUAATT against CCR10, the median seed-adjusted z-score is inactive: -0.129.
